# Reference: publication PMC8096239, “Nse5/6 is a negative regulator of the ATPase activity of the Smc5/6 complex”
# No constants are given. Whether binding was seen depends on the method and setting. Some results given as binding are weak or reduced against the parent protein; the word gives no strength. Where a sequence is shown, tags or fusion partners need not be part of it.
# B1: HA-Nse2 (protein, UniProt P38632 1-267)
# chain: MALNDNPIPKSVPLHPKSGKYFHNLHARDLSNIYQQCYKQIDETINQLVDSTSPSTIGIEEQVADITSTYKLLSTYESESNSFDEHIKDLKKNFKQSSDACPQIDLSTWDKYRTGELTAPKLSELYLNMPTPEPATMVNNTDTLKILKVLPYIWNDPTCVIPDLQNPADEDDLQIEGGKIELTCPITCKPYEAPLISRKCNHVFDRDGIQNYLQGYTTRDCPQAACSQVVSMRDFVRDPIMELRCKIAKMKESQEQDKRSSQAIDVL
# B2: HIS-TEV-Nse1 (protein, UniProt Q07913 1-336)
# chain: MEVHEEQVSAPVTGDATAKYLLQYILSARGICHENALILALMRLETDASTLNTEWSIQQWVDKLNDYINAINVKLNLLGYKIIRINHGIGRNAVTLKAKQNFESFEDNTAIRAHNNDYAVLQSIVLPESNRFFVYVNLASTEETKLATRFNQNEIEFMKWAIEQFMISGETIVEGPALETSIIVKEVNRILVAATGDSNLAKWRKFSTFTVGSTNLFQFQELTATDIEDLLLRLCELKWFYRTQEGKFGIDLRCIAELEEYLTSMYNLNTCQNCHKLAIQGVRCGNESCREENEETGENSLSQIWHVDCFKHYITHVSKNCDRCGSSLITEGVYVI
# B3: Nse3 (protein, UniProt Q05541 1-303)
# chain: MSSIDNDSDVDLTEDLAVAKIVKENPVARKMVRYILSRGESQNSIITRNKLQSVIHEAAREENIAKPSFSKMFMDINAILYNVYGFELQGLPSKNNMNAGGNGSNSNTNKSMPEPLGHRAQKFILLNNVPHSKNFDDFKILQSAHTYEELIVTGEYIGDDIASGTSNTLESKLSTDRDLVYKGVLSVILCIVFFSKNNILHQELIKFLETFGIPSDGSKIAILNITIEDLIKSLEKREYIVRLEEKSDTDGEVISYRIGRRTQAELGLESLEKLVQEIMGLEKEQTKSLHDDIIKSIGDSYSI
# B4: Nse4-HALO-Myc (protein, UniProt P43124 1-402)
# chain: MSSTVISRKRRNSTVTEPDSSGETRKQKKSRSDEKSSSSKDGDPQLEFKVLQGYRDLESEMHKGRAQVTRTGDIGVAMDNLNAVDSLFNKVIGIKNNGLFAHDARAMVSISELAQISVRNLKFDDSRSMVNLENIVNSLKRYMLKEHFKLNNIAENRNDLTLAADEQSAADQQEESDGDIDRTPDDNHTDKATSSFKATSMRHSYLQQFSHYNEFSQFNWFRIGALYNTISKNAPITDHLMGPLSIEKKPRVLTQRRRNNDQVGEKITAEKITQHSLNSTQQETTPEQVKKCFKKLSKKLGPEGSINLFKFIIDPNSFSRSIENLFYTSFLIKEGKLLMEHDEEGLPTIKIKQSISHTDSRSKEIERQRRRAAHQNHIIFQMDMPTWRKLIKKYNITSPFLD
# B5: Nse5-C.tag (protein, UniProt Q03718 1-556)
# chain: MDGALINSVLYVSPRNGAHYFVELTEKHLLAFEMLNSMCLLENYDHVLLFLECQFGKSHNLAVIPFDIILVLFTLSTLSEYYKEPILRANDPYNTSRETLSRRALKLLQKYLAILKEFDSEQYNLYDLELLRCQFFLAIDTLTPKKQKWGFDRFRRTKSESGVTYRQNASVDPELDQAKTFKNPYRSYISCLEQRNTILGNRLLNLKLNEPGEFINMILWTLSNSLQESTPLFLSSHEIWMPLLEILIDLFSCRQDYFIQHEVAQNVSKSLFVQRLSESPLAVFFESLNTRNFANRFSEYVFLNCDYKLPSDNYATPVHPVYNGENTIVDTYIPTIKCSPLYKSQKSLALRRKLIGSCFKLLLRVPDGHRLITPRIVADDVIQGISRTLASFNDILQFKKFFMTENLSQESYFIPLLAEGTLSEILKDTQECVVILTLVENLSDGVSFCNEVIGLVKSKCFAFTEQCSQASYEEAVLNIEKCDVCLLVLLRYLLHLIGTEAILDAKEQLEMLHAIEKNDSGRRQWAKALNLGNDPPLLYPIVSQMFGVHDKSVIIE
# Key:
# [1] = biological target: T1, Smc5-FLAG (S. cerevisiae) (UniProt Q08204); assay: co-purification of co-expressed proteins; Smc5-FLAG, Smc6-AVI-HIS and HA-Nse2, without or with HIS-TEV-Nse1, Nse3 and Nse4-HALO-Myc, co-expressed in Sf9 from one baculovirus; lysate on CoHIS resin, then ANTI-FLAG M2 gel (eluted with 3x FLAG peptide), heparin, Superose 6 in 20 mM HEPES pH 7.5, 150 mM NaCl, 0.5 mM TCEP; SDS-PAGE
# T1 sequence: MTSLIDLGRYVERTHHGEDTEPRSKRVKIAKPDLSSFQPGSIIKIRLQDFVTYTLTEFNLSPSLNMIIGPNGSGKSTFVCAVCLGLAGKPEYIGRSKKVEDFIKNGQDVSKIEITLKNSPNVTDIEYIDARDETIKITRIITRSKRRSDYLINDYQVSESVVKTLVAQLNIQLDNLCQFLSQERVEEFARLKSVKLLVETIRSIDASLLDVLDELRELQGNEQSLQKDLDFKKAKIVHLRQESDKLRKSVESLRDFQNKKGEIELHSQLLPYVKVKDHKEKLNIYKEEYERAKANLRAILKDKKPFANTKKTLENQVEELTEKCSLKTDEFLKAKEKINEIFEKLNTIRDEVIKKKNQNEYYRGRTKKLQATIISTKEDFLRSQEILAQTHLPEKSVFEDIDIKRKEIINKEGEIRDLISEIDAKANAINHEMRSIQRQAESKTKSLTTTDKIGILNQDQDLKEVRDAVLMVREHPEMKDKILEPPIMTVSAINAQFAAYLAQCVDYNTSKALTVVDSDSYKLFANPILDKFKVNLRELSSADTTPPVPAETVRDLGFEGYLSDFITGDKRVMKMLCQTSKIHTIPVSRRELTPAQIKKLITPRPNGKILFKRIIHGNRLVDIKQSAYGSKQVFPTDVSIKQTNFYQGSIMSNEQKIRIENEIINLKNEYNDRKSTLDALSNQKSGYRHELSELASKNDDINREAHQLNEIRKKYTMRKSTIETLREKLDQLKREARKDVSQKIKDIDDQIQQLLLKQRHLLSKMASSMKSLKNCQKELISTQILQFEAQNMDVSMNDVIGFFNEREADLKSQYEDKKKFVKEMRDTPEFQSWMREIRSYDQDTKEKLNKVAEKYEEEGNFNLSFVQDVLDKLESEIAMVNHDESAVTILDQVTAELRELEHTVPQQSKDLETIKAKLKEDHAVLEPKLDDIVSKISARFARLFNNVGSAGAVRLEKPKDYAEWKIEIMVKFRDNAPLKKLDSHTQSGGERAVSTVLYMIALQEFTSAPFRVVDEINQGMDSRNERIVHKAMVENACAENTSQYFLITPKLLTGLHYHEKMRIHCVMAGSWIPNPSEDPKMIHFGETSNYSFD
# [2] = biological target: T1, Smc5-FLAG (S. cerevisiae); assay: negative stain electron microscopy; purified complexes cross-linked with glutaraldehyde or BS3 and run on Superose 6 in buffer D; uranyl acetate stain; 2D classes, 3D reconstruction and focussed refinement in RELION; both purified
# [3] = biological target: T2, HIS-TEV-Nse1 (S. cerevisiae) (UniProt Q07913); assay: co-purification of co-expressed proteins; N1–N3–N4 and N5-N6 sub-complexes co-expressed in Sf9; 'standard chromatographic techniques'; colloidal blue SDS-PAGE and western blot of the tags
# T2 sequence: B2 chain
# [4] = biological target: T3, HIS-3C-Nse6 (S. cerevisiae) (UniProt P40026); assay: as above
# T3 sequence: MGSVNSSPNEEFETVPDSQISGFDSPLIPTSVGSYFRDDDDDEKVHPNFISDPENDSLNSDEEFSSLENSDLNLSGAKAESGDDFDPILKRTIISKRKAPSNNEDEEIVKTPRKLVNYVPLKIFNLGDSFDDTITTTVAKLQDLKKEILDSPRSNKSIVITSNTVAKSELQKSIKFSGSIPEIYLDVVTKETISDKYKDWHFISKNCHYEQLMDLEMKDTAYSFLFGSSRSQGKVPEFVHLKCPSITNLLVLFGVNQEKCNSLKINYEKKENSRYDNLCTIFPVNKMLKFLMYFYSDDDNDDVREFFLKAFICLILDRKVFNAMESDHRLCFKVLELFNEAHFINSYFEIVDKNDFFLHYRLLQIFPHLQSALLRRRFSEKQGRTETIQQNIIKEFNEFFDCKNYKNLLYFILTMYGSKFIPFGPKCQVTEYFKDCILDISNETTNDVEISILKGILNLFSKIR
binding [1],binding [2],binding [3],binding [4],Binder
binds,binds,–,–,B1
binds,–,–,–,B2
binds,–,binds,–,B3
binds,–,binds,–,B4
–,–,–,binds,B5
